Assay results taken from publication PMC11005689.

Protein sequences, listed by entry. Tags and fused reporters are not part of them.
UniProt Q7L5N1: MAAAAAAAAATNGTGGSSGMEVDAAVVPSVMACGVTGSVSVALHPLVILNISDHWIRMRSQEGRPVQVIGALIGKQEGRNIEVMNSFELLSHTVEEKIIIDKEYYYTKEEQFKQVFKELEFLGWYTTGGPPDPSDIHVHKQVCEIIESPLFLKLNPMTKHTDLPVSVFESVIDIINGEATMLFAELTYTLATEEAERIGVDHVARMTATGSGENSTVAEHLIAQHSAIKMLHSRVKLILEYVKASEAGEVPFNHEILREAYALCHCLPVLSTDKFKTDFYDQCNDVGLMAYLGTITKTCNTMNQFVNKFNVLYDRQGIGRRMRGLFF

Target: CSN6 (human (endogenous in Huh-7)) (UniProt Q7L5N1)
Test: affinity purification with mass spectrometry; CSN6 immunoprecipitated from Huh7 cells in the presence of MG132 for 8 h; mass spectrometry of associated proteins

binding: binds
B1: hydroxymethylglutaryl‐CoA synthase 1 (HMGCS1) (protein, UniProt Q01581 1-520)
chain: MPGSLPLNAEACWPKDVGIVALEIYFPSQYVDQAELEKYDGVDAGKYTIGLGQAKMGFCTDREDINSLCMTVVQNLMERNNLSYDCIGRLEVGTETIIDKSKSVKTNLMQLFEESGNTDIEGIDTTNACYGGTAAVFNAVNWIESSSWDGRYALVVAGDIAVYATGNARPTGGVGAVALLIGPNAPLIFERGLRGTHMQHAYDFYKPDMLSEYPIVDGKLSIQCYLSALDRCYSVYCKKIHAQWQKEGNDKDFTLNDFGFMIFHSPYCKLVQKSLARMLLNDFLNDQNRDKNSIYSGLEAFGDVKLEDTYFDRDVEKAFMKASSELFSQKTKASLLVSNQNGNMYTSSVYGSLASVLAQYSPQQLAGKRIGVFSYGSGLAATLYSLKVTQDATPGSALDKITASLCDLKSRLDSRTGVAPDVFAENMKLREDTHHLVNYIPQGSIDSLFEGTWYLVRVDEKHRRTYARRPTPNDDTLDEGVGLVHSNIATEHIPSPAKKVPRLPATAAEPEAAVISNGEH

These are yes or no findings as the source states them, for the method shown. Binding seen in cells or lysates may run through a third protein. These calls come from enrichment with a bait or labelling near it, and not all partners need be listed.
